From PubChem BioAssay AID2685 (National Center for Advancing Translational Sciences (NCATS), 2010)
The other results are listed elsewhere or left out. Further columns of the screen follow, without active or inactive calls. Compounds called inactive in the main read-out are mostly missing here. The note in brackets gives the kind of curve behind each potency; many fits are weak.

Test: qHTS Assay for Lipid Storage Modulators in Drosophila S3 Cells;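 for cell number change: cells counted by Cell Tracker Red CMTPX staining in the red channel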
Details: BODIPY lipid droplet fluorescence, 18-24 h; for cell number change: measured here: cell count max response, cells fed with added oleic acid
Outline: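 Drosophila S3 cells loaded with oleic acid (400 uM, as added) and compounds at several concentrations; lipid droplets imaged by 488-nm laser-scanning cytometry, 500–530 nm intensity and object ratio to cell channel. Percent activity normalized to 20 uM Triacsin C.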

[1] = measured here: lipid fluorescence (Fed channel) AC50, cells fed with added oleic acid
[2] = measured here: cell number channel AC50, cells fed with added oleic acid

For `CN1CCN(C(=O)/C(=C/c2cn(S(=O)(=O)N(C)C)c3ccccc23)NC(=O)c2ccccc2Cl)CC1`, the AC50 [1] was 0.58 µM [rising, single point].

In the case of `CC(C)CCNC(=O)CCS(=O)(=O)c1cccc2nonc12`, the cell number change is reported as 2.18% and the AC50 [1] is reported as 18.4 µM [rising, single point].

With `CCOc1cc(S(=O)(=O)n2nc(C)cc2C)ccc1F` the AC50 [1] was 29.1 µM [rising, single point].

In the case of `CCOC(=O)c1ccc(Nc2ccc(-c3ccc(OC)c(OC)c3)nn2)cc1`, the cell number change is reported as -40.6%, the AC50 [2] is reported as 14.6 µM [falling, partial curve] and the AC50 [1] is reported as 32.6 µM [falling, single point].

In the case of `CC(C)(C)c1nc(NCC2CCCO2)c2nnn(Cc3ccccc3)c2n1` (stereo unspecified), the cell number change is reported as 5.23% and the AC50 [1] is reported as 5.17 µM [rising, single point].

`O=[N+]([O-])c1ccc(N2CCN(c3ccccc3O)CC2)cc1` showed a cell number change of 21.8%.

In the case of `O=C(COC(=O)COc1ccccc1F)Nc1ccc2c(c1)OCO2`, the cell number change is reported as 0.211% and the AC50 [1] is reported as 0.58 µM [falling, single point].

In the case of `Cc1cc(NCCOCCO)n2ncc(-c3ccc(Cl)cc3)c2n1`, the cell number change is reported as -10.1%.

For `CC1CN(C(=O)CNC(=O)Cc2cccc3ccccc23)CC(C)O1` (stereo unspecified), the AC50 [1] was 29.1 µM [falling, single point].

In the case of `O=S(=O)(c1ccccc1)N1CCN(Cc2cc3c(cc2Br)OCCO3)CC1`, the cell number change is reported as 30.5% and the AC50 [1] is reported as 0.146 µM [rising, full curve, poor fit].

`CN(C)C(=O)C1CCC(=O)N1Cc1cccs1` (stereo unspecified) gave a cell number change of 9.9%.

Molecule `Cc1ccc2nc(-c3ccccc3)cc(C(=O)N3CCN(S(=O)(=O)c4c(C)noc4C)CC3)c2c1` has a cell number change of -19.2%.

In the case of `O=C(c1ccc(S(=O)(=O)N2CCOCC2)cc1)N1CCc2ccccc21`, the cell number change is reported as -14.3%.

In the case of `COc1cccc(NC(=O)CN(C)CC(=O)Nc2ccccc2-c2ccccc2)c1`, the cell number change is reported as -19.9%, the AC50 [2] is reported as 6.51 µM [rising, single point] and the AC50 [1] is reported as 6.51 µM [rising, partial curve].

With `COc1ccc(COC(=O)CCS(=O)(=O)c2ccc(C)cc2)cc1` the cell number change was -23.9% and the AC50 [2] was 1.84 µM [falling, full curve, poor fit].

In the case of `COCCOC(=O)C1=C(C)N=C2SCCC(=O)N2C1/C=C/c1ccccc1` (stereo unspecified), the cell number change is reported as -14.1% and the AC50 [1] is reported as 2.31 µM [rising, single point].

In the case of `CC(C)OC(=O)/C(=C/c1ccc(Br)cc1)NC(=O)c1ccco1`, the cell number change is reported as 26.4%.

Work on `CN(C)S(=O)(=O)c1ccc2c(c1)nc(CCC(=O)O)n2C` yielded a cell number change of 16.4%.

In the case of `CCOc1ncccc1C(=O)OCC(=O)c1cc(C)n(Cc2ccco2)c1C`, the cell number change is reported as -15.5% and the AC50 [1] is reported as 29.1 µM [rising, single point].

In the case of `Cn1nccc1C(=O)N1CCN(c2ncccn2)CC1`, the cell number change is reported as -22.3%.

For `CCOC(=O)c1sc(NNC(=O)c2ccc(C)cc2)nc1C`, the AC50 [1] was 4.61 µM [rising, partial curve, poor fit].

`CC1=C(C(=O)OCC2CCCCC2)C(c2cccc(O)c2)NC(=O)N1` (stereo unspecified) gave a cell number change of 13.9%.

Work on `Cc1c(C(=O)N2c3ccccc3CC2C)oc2ccccc12` (stereo unspecified) yielded a cell number change of -7.23%.

For `Cc1ccccc1OCC(=O)OCC(=O)NCC1CCCO1` (stereo unspecified), the cell number change was 19.7% and the AC50 [1] was 0.00461 µM [falling, full curve, poor fit].

In the case of `COc1ccc(-n2c(Cc3cccn3C)nnc2SCC(=O)NCC2CCCO2)cc1` (stereo unspecified), the cell number change is reported as 41.6% and the AC50 [2] is reported as 23.1 µM [rising, single point].

`Cc1ccc(CCNC(=O)c2c[nH]c3ccc(S(=O)(=O)Nc4ccc(C)cc4C)cc3c2=O)cc1` gave a cell number change of 13.6%.

For `COc1ccc(C)cc1NC(=O)CN(C)S(=O)(=O)c1ccc2c(c1)n(C)c(=O)c(=O)n2C`, the cell number change was -15.8% and the AC50 [1] was 0.651 µM [falling, full curve].

For `COc1ccc(/C=N/NC(=O)c2ccncc2)cc1Cn1nc([N+](=O)[O-])c(Br)c1C`, the cell number change was 2.73%.

In the case of `CCOC(=O)C1CCCN(C(=O)c2ccc(OC)c([N+](=O)[O-])c2)C1` (stereo unspecified), the cell number change is reported as 33.3% and the AC50 [2] is reported as 29.1 µM [rising, single point].

In the case of `O=C(CSc1nnc(COc2ccccc2)n1Cc1ccco1)c1ccc(F)cc1`, the cell number change is reported as -13.9%, the AC50 [2] is reported as 7.31 µM [falling, single point] and the AC50 [1] is reported as 9.2 µM [falling, partial curve].

For `Cc1cc(C(=O)N/N=C/c2c(CO)cnc(C)c2O)c2ccccc2n1`, the AC50 [1] was 7.31 µM [falling, partial curve].

For `O=C(COc1ccc(Cl)cc1Cl)Nc1nnc(C2=COCCO2)o1`, the cell number change was 18.2%, the AC50 [2] was 0.0731 µM [rising, full curve, poor fit] and the AC50 [1] was 0.092 µM [rising, full curve, poor fit].

For `CSc1ccccc1NC(=O)CN(C)C(=O)c1cccc(S(=O)(=O)N(C)C)c1`, the cell number change was 36.7%.

With `Cc1[nH]c(=O)c(C#N)cc1-c1ccncc1` the cell number change was -7.75%.

For `O=C(NCCNCc1cccs1)c1ccccc1F`, the cell number change was 42.4%, the AC50 [2] was 5.8 µM [rising, partial curve] and the AC50 [1] was 29.1 µM [rising, single point].

In the case of `N#Cc1cccn1-c1nccs1`, the AC50 [1] is reported as 0.291 µM [falling, partial curve, poor fit].

For `COc1ccc(S(=O)(=O)N(C)CC(=O)NCc2cccnc2)cc1Cl`, the cell number change was 38.5%, the AC50 [2] was 23.1 µM [rising, single point] and the AC50 [1] was 29.1 µM [rising, single point].

With `COc1cccc(C(=O)N(c2ccc(OC)cc2OC)C2C=CS(=O)(=O)C2)c1` (stereo unspecified) the cell number change was -17% and the AC50 [1] was 29.1 µM [falling, single point].

For `CCN1CCN(c2ccc(NC(=O)c3ccc4c(c3)[nH]c(=O)n4Cc3ccc(OC)cc3)cc2)CC1`, the cell number change was 8.31% and the AC50 [1] was 0.164 µM [falling, full curve, poor fit].

`NC(N)=N/N=C/c1ccc(Cl)cc1Cl` showed a cell number change of 0.351%.

Molecule `COc1ccc(CCN(C)C(=O)CN2C(=O)NC3(CCCCC3C)C2=O)cc1OC` (stereo unspecified) has a cell number change of 4%.

With `O=C(Nc1cccc(F)c1)Nc1ccccn1` the cell number change was -26.7%, the AC50 [2] was 4.11 µM [falling, full curve, poor fit] and the AC50 [1] was 0.164 µM [falling, single point].

For `OCCCNC(=S)Nc1ccc(Oc2ccccc2)cc1`, the cell number change was -4.31% and the AC50 [1] was 1.03 µM [falling, partial curve, poor fit].
